Data reported in PubChem BioAssay AID1347423 (Functional Genomics Laboratory (NCATS/FGL), 2020).
About 210 (0.4%) of roughly 52,000 sequences were called active.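 Rule for the calls: active = gene whose silencing raises cell survival under the drug, median off-target-corrected z-score across its silencing RNAs 2 or more; inactive = the rest.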 This is one part of the list.

Assay: Resistance to Poly (ADP-Ribose) Polymerase inhibitor: Gene Identification via Genome-wide siRNA Screen
Conditions: mouse BRCA2 R2336H ES cells, olaparib, CellTiter-Glo viability; active compounds read high
How it was run: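 Genome-wide siRNA screen (3 siRNAs/gene, 20 nM) in mouse ES cells carrying hypomorphic BRCA2 R2336H; olaparib 500 nM added 48 h post-transfection, CellTiter-Glo viability 72 h later. Normalized to plate-median negative control; MAD z-scores, gene median, seed-adjusted.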

Row | Sequence | z-score
1 | GGCCUCAGAAAAGGAUCGATT against Olfr1500 | inactive: 0.598
2 | GGGUGAAGGUGAAUAUUUATT against Esm1 | inactive: 0.508
3 | GGUGAAGUUAAAAUGAACUTT against Cul2 | inactive: -0.68
4 | GGCUUAACAGAGAAACACCTT against D430025H09Rik | inactive: -0.922
5 | GCUAGGUACUGGGUUUUGCTT against Adora2b | inactive: 0.227
6 | GGUCCCAGCAUGUUUACGUTT against Slc2a12 | inactive: -0.398
7 | GGAAAGUGAUGUCACAAAATT against G3bp | inactive: -0.546
8 | GAUGAGAGACAAAUUCCCATT against Il11 | inactive: 0.313
9 | GGAUUAAAUGGUGGUGGAGTT against Dnajb6 | inactive: -0.598
10 | GGAGCGAUACCACAGUUUATT against Rab5b | inactive: -0.673
11 | GGCCAAGAAGACAAGAAAATT against Ddx54 | inactive: -2.16
12 | GCCCUGAGGAAGGUACUAATT against Olfr479 | inactive: -0.614
13 | CGUGAAGCAAGCCUUACCCTT against E030024M05Rik | inactive: 0.871
14 | GGCGAUCCACAGGAACUCUTT against Tiam1 | inactive: 0.0217
15 | GGUCUUCUUAGCUUUUUUUTT against E130309F12Rik | inactive: -0.732
16 | GCUACGAGCAGAUGAUGGATT against 2410030K01Rik | inactive: -0.686
17 | GGAAAUCUAAUGCACUUACTT against Gsdm3 | inactive: -1.15
18 | GGCACCAAGCUCGAUGAUGTT against Sh3gl2 | inactive: 2.76
19 | UGAUAUCGGAACAGAGAUGTT against Tbx15 | inactive: -0.175
20 | GCCUGUAAAAACCUUUUCCTT against AW544865 | inactive: -0.628
21 | GCCCGAGACCAUGGUUUGUTT against Zfyve21 | inactive: -1.01
22 | GGCCUACCAUUUCUUUAUATT against Wdr35 | inactive: 0.141

Row | Sequence | z-score
23 | GGGAUGUGAGGGAAUUAACTT against B4galt3 | inactive: 0.824
24 | GCUCUCACCUUCAUUUGAATT against 0610009B10Rik | inactive: -0.518
25 | GGCACUCAAAUUCUACACCTT against Wasf2 | inactive: 0.0365
26 | CCUCCCUGUCUAUUGUGCUTT against Slc35a2 | inactive: -0.252
27 | GCCUAUUUGACGUGCAGAGTT against LOC230872 | inactive: -3.07
28 | GGAAAUCAAGAAGCAGAUCTT against Epb4.1l1 | inactive: -1.57
29 | GGAUCCAGAAGAGCAUCUCTT against Sap30 | inactive: -0.235
30 | GCUUAUUUUCGAUACAUGGTT against Ddx42 | inactive: -0.233
31 | GGUAAUACAACUGAGAACUTT against Zfp2 | inactive: 0.64
32 | CCCUCGUCUGAAAUGGAAATT against AK129375 | inactive: 0.0914
33 | GGGACAACAUCCCGUCAUATT against BB114266 | inactive: 0.433
34 | GCACCAUUAAGGUUGCCAATT against Nudt11 | inactive: 1.58
35 | GGGAACCUUGCUUUUUACATT against Olfr1141 | inactive: -1.02
36 | GCUGGUAAAGGUUACGAAGTT against Crk | inactive: -0.134
37 | GGAACGCAAGAACAGAAUGTT against Rps24 | inactive: -3.31
38 | GCUGGAUCCAUACAAUUUGTT against Gdi3 | inactive: -0.283
39 | GGACGCAAGUACAAAUUUATT against Tnxb | inactive: 0.84
40 | GCACAUAUCGUGUCUCAAATT against 5033414D02Rik | inactive: 1.84
41 | GGGUAAGUAUUGAACUCAUTT against Slc10a1 | inactive: -0.137
42 | GGAAGAAGAAAGUGUUAAATT against Ythdf2 | inactive: 0.609
43 | GGCUCUGGCAGAAAUGGAUTT against Pex26 | inactive: 0.663
44 | GGAUGAUCAAGCAGAGUUUTT against Dctn2 | inactive: -1.62

Some of the entries so far, as labelled records:
UGAUAUCGGAACAGAGAUGTT against Tbx15
  z-score: inactive: -0.175
GCCUGUAAAAACCUUUUCCTT against AW544865
  z-score: inactive: -0.628
GCCCGAGACCAUGGUUUGUTT against Zfyve21
  z-score: inactive: -1.01
GGCCUACCAUUUCUUUAUATT against Wdr35
  z-score: inactive: 0.141

Following part:

Row | Sequence | z-score
45 | GGAGGUGUUCAAAGACAACTT against Traf5 | inactive: -0.073
46 | GCUGCCUCUCACCAAGUAUTT against Creb3l3 | inactive: -2.67
47 | GGGAAUCUAUUGAUGGGAUTT against Sardh | inactive: -1.14
48 | GCAUUCAGGACCUGUGGCUTT against Olfr890 | inactive: -0.854
49 | GGAUGCUGAUGGAUUCUCUTT against Caskin2 | inactive: 0.209
50 | GGAAAAGCAGAUUGAAAUGTT against Gbp1 | inactive: -1.11
51 | GCACUUUAAGAUCAACCGGTT against Bcar3 | inactive: 0.514
52 | CCGUCCCUAUGAAAUCAGCTT against Lrat | inactive: -1.11
53 | GGAAUGUUGCCAUAGUGGATT against 9530058B02Rik | inactive: -0.599
54 | GGACUUUUUCACUUUCAAATT against Ugt1a5 | inactive: 0.383
55 | GGUAUUUUUCAACAUUCUGTT against A530087D17Rik | inactive: -0.648
56 | GGACUGGACGACAAUUAGGTT against Brms1l | inactive: 1.15
57 | CGGCCUGUACAGUCACUUATT against Zmynd12 | inactive: -1.63
58 | CCUUAUUUGUCCAUAAAAGTT against Pkdrej | inactive: 1.02
59 | GGAGAGAAGAGCAGAAAGATT against Nosip | inactive: -0.29
60 | GGCCAUAUCAUUCUUCAUUTT against Tbx18 | inactive: -0.15
61 | GGUUAACUCCUUUUCUAGATT against 4933424B01Rik | inactive: -0.519
62 | CCAGGGAAUUAAAUUUACATT against Lrrc16 | inactive: -1.59
63 | GGAUAUGGUUUUUAGACACTT against 2310014H19Rik | inactive: 1.38
64 | CCACUCCUUACAUGACCAATT against 1810060D16Rik | inactive: -0.487
65 | GGUGGGUCUGUCUUAUUUATT against Csnk2a1 | inactive: 1.4
66 | CCAGAUCCCUGAAUUGGAATT against Myc | inactive: 1.18
